Assay results published in publication PMC13376213, “Systematic discovery of motif-based interactions of the auxiliary domains of USP family deubiquitinases” (Nature Communications, 2026).
These are yes or no findings as the source states them, for the method shown. Binding seen in cells or lysates may run through a third protein. Here binding means that the protein was enriched with, or labelled near, the bait; the list need not be complete.

Target: FLAG-tagged full-length USP20 (human)
Experiment: affinity purification with mass spectrometry; FLAG IP from transfected HEK293, four technical replicates, against the empty vector; S-Trap digestion, data-independent LC-MS

binding: binds
B1: endogenous USP19 (enzyme, UniProt O94966 1-1318)
chain: MSGGASATGPRRGPPGLEDTTSKKKQKDRANQESKDGDPRKETGSRYVAQAGLEPLASGDPSASASHAAGITGSRHRTRLFFPSSSGSASTPQEEQTKEGACEDPHDLLATPTPELLLDWRQSAEEVIVKLRVGVGPLQLEDVDAAFTDTDCVVRFAGGQQWGGVFYAEIKSSCAKVQTRKGSLLHLTLPKKVPMLTWPSLLVEADEQLCIPPLNSQTCLLGSEENLAPLAGEKAVPPGNDPVSPAMVRSRNPGKDDCAKEEMAVAADAATLVDEPESMVNLAFVKNDSYEKGPDSVVVHVYVKEICRDTSRVLFREQDFTLIFQTRDGNFLRLHPGCGPHTTFRWQVKLRNLIEPEQCTFCFTASRIDICLRKRQSQRWGGLEAPAARVGGAKVAVPTGPTPLDSTPPGGAPHPLTGQEEARAVEKDKSKARSEDTGLDSVATRTPMEHVTPKPETHLASPKPTCMVPPMPHSPVSGDSVEEEEEEEKKVCLPGFTGLVNLGNTCFMNSVIQSLSNTRELRDFFHDRSFEAEINYNNPLGTGGRLAIGFAVLLRALWKGTHHAFQPSKLKAIVASKASQFTGYAQHDAQEFMAFLLDGLHEDLNRIQNKPYTETVDSDGRPDEVVAEEAWQRHKMRNDSFIVDLFQGQYKSKLVCPVCAKVSITFDPFLYLPVPLPQKQKVLPVFYFAREPHSKPIKFLVSVSKENSTASEVLDSLSQSVHVKPENLRLAEVIKNRFHRVFLPSHSLDTVSPSDTLLCFELLSSELAKERVVVLEVQQRPQVPSVPISKCAACQRKQQSEDEKLKRCTRCYRVGYCNQLCQKTHWPDHKGLCRPENIGYPFLVSVPASRLTYARLAQLLEGYARYSVSVFQPPFQPGRMALESQSPGCTTLLSTGSLEAGDSERDPIQPPELQLVTPMAEGDTGLPRVWAAPDRGPVPSTSGISSEMLASGPIEVGSLPAGERVSRPEAAVPGYQHPSEAMNAHTPQFFIYKIDSSNREQRLEDKGDTPLELGDDCSLALVWRNNERLQEFVLVASKELECAEDPGSAGEAARAGHFTLDQCLNLFTRPEVLAPEEAWYCPQCKQHREASKQLLLWRLPNVLIVQLKRFSFRSFIWRDKINDLVEFPVRNLDLSKFCIGQKEEQLPSYDLYAVINHYGGMIGGHYTACARLPNDRSSQRSDVGWRLFDDSTVTTVDESQVVTRYAYVLFYRRRNSPVERPPRAGHSEHHPDLGPAAEAAASQASRIWQELEAEEEPVPEGSGPLGPWGPQDWVGPLPRGPTTPDEGCLRYFVLGTVAALVALVLNVFYPLVSQSRWR
